From PubChem BioAssay AID540276 (National Center for Advancing Translational Sciences (NCATS), 2011)
“And” between values parts separate entries of the source, which are not always exact repeats. Identical values can stand only once. Among all 300,000 compounds or so, about 5,400 (1.8%) were called active. The inconclusive results got no clear call from the source; some entries with a clear call stand among them for comparison. Calls follow the shape of the full dose curve; tested in HEK293 cells. Where the call is inconclusive, the potency comes from a doubtful curve fit.
% is scaled to controls: 0 for no effect and ±100 for the full control effect; potency is read from the fitted curve at half-maximal effect.

Assay: qHTS for inhibitors of binding or entry into cells for Marburg Virus
Conditions: Marburg virus pseudotyped entry inhibition, cell reporter; activity change, negative = inhibition: at 37.8 µM (top of the series) unless noted
For `COc1cc(C=C2C(=O)c3ccccc3C2=O)cc(OC)c1OC`, the Potency was inconclusive: 4.47 µM [activator, partial curve, poor fit]. For `COc1cccc(C(=O)Nc2cccc3c2ccc2cccn23)c1`, the Potency was “inactive”. In the case of `COc1ccc(NS(=O)(=O)c2ccc(Oc3ncccn3)cc2)cc1`, the Potency is reported as inconclusive: 11.2 µM [inhibitor, partial curve]. In the case of `Cc1ccc2nc(C(=O)N3CCc4c([nH]c5ccccc45)C3c3ccccn3)cn2c1` (configuration not stated), the Potency is reported as “inactive”. For `CCN(CC)CCNC(=O)NC(=O)c1ccc(Cl)cc1`, the Potency was “inactive”. With `C/C=C/c1ccc(OCCCCn2cncn2)c(OC)c1` the Potency was “inactive”. For `CCCOc1cccc(CN2CCCCC2c2cccnc2)c1` (configuration not stated), the Potency was inconclusive: 16.4 µM [inhibitor, single point]. For `CC(=O)c1ccc(OCC(=O)N(C2CCCCC2)C2CCS(=O)(=O)C2)cc1` (configuration not stated), the Potency was “inactive”. For `COc1ccccc1/C=C/C(=O)OCC(=O)c1c[nH]c2ccccc12`, the Potency was inconclusive: 0.0891 µM [inhibitor, full curve, poor fit]. With `Cc1ccc(Nc2nc(N)c([N+](=O)[O-])c(N3CCOCC3)n2)cc1C` the Potency was inconclusive: 5.8 µM [inhibitor, partial curve, poor fit]. With `CCn1c2ccccc2c2cc(CN3CCN(S(=O)(=O)Cc4ccccc4)CC3)ccc21` the Potency was inconclusive: 3.55 µM [activator, partial curve]. For `COc1ccc(NC(=O)CCNC(=O)Cn2cnc3ccccc3c2=O)cc1OC`, the Potency was inconclusive: 6.31 µM [inhibitor, single point]. For `C#CCn1c(/C=C/c2ccc(Cl)cc2)nc2ccccc21`, the activity change, negative = inhibition was inconclusive: 16.2% [activator] [at 46.1 µM]. For `O=[N+]([O-])c1ccc2c(c1)C(N1CCOCC1)/C(=C/COc1ccc(F)cc1)O2` (configuration not stated), the Potency was inconclusive: 22.4 µM [inhibitor, single point]. In the case of `O=C(NCc1nnc2c3ccccc3c(-c3ccccc3)nn12)c1ccc(Cl)cc1`, the Potency is reported as inconclusive: 35.5 µM [inhibitor, single point]. For `Brc1c(OCCOCCn2cncn2)ccc2ccccc12`, the Potency was “inactive”. For `O=C(NCCN1C(=O)S/C(=C\c2cccnc2)C1=O)c1ccc([N+](=O)[O-])s1`, the Potency was inconclusive: 31.6 µM [activator, partial curve, poor fit]. For `CN(CC/C=C1/c2ccccc2CSc2ccccc21)CCCO`, the Potency was inconclusive: 16.4 µM [inhibitor, single point]. With `O=C(CSc1nnc(Cn2nnc(-c3ccccc3)n2)n1-c1ccccc1)Nc1ccc(F)cc1` the Potency was “inactive”. With `CCN(CC)C(=O)CCS(=O)(=O)c1cccc2nonc12` the Potency was “inactive”. With `O=S(=O)(Nc1ccc2c(c1)OCCO2)c1ccc(F)c(F)c1` the Potency was “inactive”. In the case of `CN(C)CCCNCCCCNC(=O)/C=N/O`, the Potency is reported as inconclusive: 35.5 µM [activator, single point]. For `O=C(CNC(=O)c1cccc(Br)c1)N/N=C/c1ccc[nH]1`, the Potency was active: 6.31 µM. For `CC(C)(C)c1sc(N)nc1-c1ccccc1`, the Potency was “inactive”. For `CCn1cc(CCC(=O)NCc2cccc(OC)c2OC)c2ccccc21`, the Potency was inconclusive: 35.5 µM [inhibitor, single point]. With `Cn1ccnc1C(=O)c1cccc(Br)c1` the Potency was “inactive”. In the case of `CCc1ccc(CN(Cc2ccco2)c2cnc(S(C)(=O)=O)nc2C(=O)Nc2ccc(C)c(Cl)c2)cc1`, the Potency is reported as inconclusive: 0.562 µM [inhibitor, full curve, poor fit]. In the case of `COc1cc(OC)c(C(=O)NCc2nc(-c3ccccc3)no2)cc1OC`, the Potency is reported as inconclusive: 3.55 µM [inhibitor, single point]. In the case of `CCCC(=O)Oc1c(Sc2ccc(C)cc2)c(C)nn1-c1ccccc1`, the Potency is reported as inconclusive: 35.5 µM [activator, single point]. With `CCC(C)C(=O)Nc1cc(OC)c(OC)cc1C(=O)O` (configuration not stated) the Potency was inconclusive: 6.31 µM [activator, single point]. With `CCn1cc(Cl)c(C(=O)Nc2ccc3c(c2)OCCO3)n1` the Potency was active: 10 µM. For `Cc1c(NC(=O)C2CCCN(S(=O)(=O)c3cnc[nH]3)C2)c(=O)n(-c2ccccc2)n1C` (configuration not stated), the Potency was “inactive”. For `CC(=O)Oc1cc2c(cc1Cl)C(c1cccs1)CC1(CC(C)(C)NC(=S)N1)O2` (configuration not stated), the Potency was inconclusive: 17.8 µM [inhibitor, single point]. With `COc1ccc2c(c1)C=C(CN1CCN(C3CCCC3)C(CCO)C1)CO2` (configuration not stated) the Potency was inconclusive: 35.5 µM [inhibitor, single point]. For `CC(C)CCN1CCN(C2CCN(c3ccc4c(c3)OCO4)CC2)CC1CCO` (configuration not stated), the Potency was inconclusive: 11.2 µM [inhibitor, single point]. With `COc1ccc(S(=O)(=O)NCc2ccc(C(=O)N3CCc4ccccc4C3)cc2)cc1` the Potency was “inactive”. With `O=C(Nc1cccc(C(F)(F)F)c1)c1cc2c(=O)c3ccccc3oc2nc1C(F)(F)F` the Potency was inconclusive: 32.6 µM [inhibitor, single point]. With `COc1ccc(Cn2c(CCC(=O)Nc3ccc(Br)c(C)c3)nc3cccnc32)cc1` the Potency was “inactive”. In the case of `CCCCCn1c(=O)[nH]c2cc(C(=O)N3CCN(c4ccc(OC)cc4)CC3)ccc2c1=O`, the Potency is reported as inconclusive: 5.01 µM [activator, single point]. With `CCSc1nc(N)c2c3c(sc2n1)CN(C)CC3` the Potency was “inactive”. With `COC(=O)c1ccc(-n2c(C)cc(C(=O)CSc3ccc(NC(C)=O)cc3)c2C)cc1` the Potency was inconclusive: 18.4 µM [inhibitor, partial curve, poor fit]. In the case of `CC(Sc1nnc(-c2ccco2)n1C)C(=O)Nc1nccs1` (configuration not stated), the Potency is reported as “inactive”. In the case of `Cc1cccc(NC(=O)CCCc2ccccc2)c1C`, the Potency is reported as inconclusive: 15.8 µM [activator, single point]. In the case of `CC(C)=CCC/C(C)=C/CO/N=C1\C[C@@H](O)[C@@H](O)[C@@H]2[C@@H]3C(=O)N(Cc4ccc5c(c4)OCO5)C(=O)[C@@H]3CC[C@@H]12`, the Potency is reported as “inactive”. For `Cc1oc2c(cc(NS(=O)(=O)c3ccc(Br)cc3)c3ccccc32)c1C(=O)OCc1ccccc1`, the Potency was “inactive”. With `Cc1cccc(C)c1NC1=NC(C)(C)N=C(N)N1` the Potency was “inactive”. For `C=CCOc1c(CNC2CCCC2)cc(Cl)cc1OC`, the Potency was inconclusive: 4.47 µM [inhibitor, partial curve, poor fit]. For `COc1ccc(OC)c(NC(=O)c2cc(-c3cc(C)ccc3O)n[nH]2)c1`, the Potency was inconclusive: 35.5 µM [inhibitor, single point]. In the case of `Cc1ccc(C(=O)COC(=O)c2ccc(Cl)c(N)c2)s1`, the Potency is reported as “inactive”. For `CCc1ccc(NC(=O)Cc2c(C(=O)O)n(C)c3ccccc23)cc1`, the Potency was “inactive”. With `O=C(Cn1c2[n+](c3ccc(C(F)(F)F)cc31)CCCCC2)Nc1ccccc1` the Potency was “inactive”. With `CCN(CC)P(=O)(NC(=O)C(Cl)(Cl)Cl)N(CC)CC.[Cl-].[Cl-].[Cl-].[Nd+3]` the Potency was inconclusive: 8.2 µM [inhibitor, partial curve, poor fit] and inconclusive: 35.5 µM [inhibitor, single point]. With `CCCc1nc2ccccc2c(C(=O)O)c1CC` the Potency was inconclusive: 3.16 µM [inhibitor, partial curve, poor fit]. In the case of `O=C(O)CSCC(=O)N1CCCN(c2nc3ccc(Cl)cc3s2)CC1`, the Potency is reported as “inactive”. With `CCCOc1ccc(-c2nc(OCC)c3ccccc3n2)cc1` the Potency was “inactive”. For `O=C(CCc1nnc(CCCc2ccccc2)o1)NC(C1CC1)C1CC1`, the Potency was inconclusive: 3.16 µM [activator, partial curve, poor fit]. In the case of `COc1cccc(N=Nc2c(N)[nH]n3c(=O)cc(-c4ccccc4)nc23)c1`, the Potency is reported as “inactive”. With `CN1CCN(CC2(O)CCN(S(=O)(=O)c3ccc(Cl)cc3)CC2)CC1` the Potency was inconclusive: 8.91 µM [inhibitor, single point]. In the case of `O=C(O)c1cc([N+](=O)[O-])ccc1C(=O)Nc1cccc([N+](=O)[O-])c1`, the Potency is reported as inconclusive: 20 µM [activator, partial curve, poor fit]. For `CC1=NN(C(=O)c2csc(C)c2C)C(O)(C(F)(F)F)C1` (configuration not stated), the Potency was inconclusive: 2.51 µM [activator, full curve, poor fit]. With `CCCSc1nc(C)c(CC(=O)OCC)c(=O)[nH]1` the Potency was “inactive”. For `COC(=O)c1ccccc1NC(=S)NC(NC(=O)c1ccco1)C(Cl)(Cl)Cl` (configuration not stated), the Potency was “inactive”. With `COc1ccc([N+](=O)[O-])cc1NC(=O)CCCOc1ccccc1` the Potency was “inactive”. With `Cc1ccc(CN2CCC(CNC(=O)Nc3ccccc3F)CC2)cc1` the Potency was inconclusive: 35.5 µM [inhibitor, single point]. For `COc1ccccc1-c1cc(C(F)(F)F)nc(S(=O)(=O)CCCC(=O)Nc2ccccc2F)n1`, the Potency was inconclusive: 35.5 µM [inhibitor, single point]. With `COc1ccc(-c2nn(-c3ccccc3)cc2/C=C/C(=O)N2CCN(c3ccccn3)CC2)cc1` the Potency was inconclusive: 35.5 µM [inhibitor, single point]. With `Cn1cccc1Cc1nnc(SCC(=O)Nc2cccc(Cl)c2)n1-c1ccc(F)cc1` the Potency was “inactive”. With `NC(=O)C1CCN(c2ncccc2[N+](=O)[O-])CC1` the Potency was inconclusive: 0.562 µM [activator, full curve, poor fit]. For `CCc1ccc(NC(=O)CSc2nnc(Cc3cccn3C)n2-c2ccc(F)cc2)cc1`, the Potency was “inactive”. In the case of `COc1ccc(NC(=O)c2sc3nc(C)c(C(=O)Nc4ccc(C)cc4C)c(-c4sccc4C)c3c2N)cc1`, the Potency is reported as inconclusive: 10 µM [inhibitor, partial curve]. With `O=c1c(-c2ccccc2)nc(-c2ccccc2)cn1O` the Potency was “inactive”. In the case of `COCc1c(C(=O)N/N=C(/C)c2ccc(OCc3ccccc3)cc2)nnn1-c1nonc1N`, the Potency is reported as inconclusive: 35.5 µM [inhibitor, single point].
